Source: patent US20220259167A1, “FUROSEMIDE ANALOGUES AND COMPOSITIONS AND USES THEREOF FOR TREATMENT OF ALZHEIMER'S DISEASE” (UNIVERSITY HEALTH NETWORK, priority 2019, published 2022)

Test system: peripheral mononuclear cells
Details: data not shown

NS(=O)(=O)c1cc(C(=O)O)c(NCc2ccco2)cc1Cl [Furosemide, 4-Chloro-2-((furan-2-ylmethyl)amino)-5-sulfamoylbenzoic Acid]
Production and release of cytokines including IL-6, IL-8, and TNF-α: inhibits the production and release of cytokines
